These are yes or no findings as the source states them, for the method shown. Some entries that bind do so weakly or less than the wild type.
Experiments:
[1] = molecular target: T1, human LTBP1-proTGFβ1 complex (human, UniProt Q14766 347-1721; P01137 30-390); assay: Octet binning
T1 construct: Complex of presenting molecule LTBP1 disulfide-linked to a proTGFβ1 homodimer; also called proTGFβ1:LTBP1 complex; LTBP1-TGFβ1 complex

The chains behind the UniProt entries cited, without tags or fusion partners. Where a name states a change or a piece, a line headed by the entry shows the natural chain unless it says otherwise.
UniProt Q14766: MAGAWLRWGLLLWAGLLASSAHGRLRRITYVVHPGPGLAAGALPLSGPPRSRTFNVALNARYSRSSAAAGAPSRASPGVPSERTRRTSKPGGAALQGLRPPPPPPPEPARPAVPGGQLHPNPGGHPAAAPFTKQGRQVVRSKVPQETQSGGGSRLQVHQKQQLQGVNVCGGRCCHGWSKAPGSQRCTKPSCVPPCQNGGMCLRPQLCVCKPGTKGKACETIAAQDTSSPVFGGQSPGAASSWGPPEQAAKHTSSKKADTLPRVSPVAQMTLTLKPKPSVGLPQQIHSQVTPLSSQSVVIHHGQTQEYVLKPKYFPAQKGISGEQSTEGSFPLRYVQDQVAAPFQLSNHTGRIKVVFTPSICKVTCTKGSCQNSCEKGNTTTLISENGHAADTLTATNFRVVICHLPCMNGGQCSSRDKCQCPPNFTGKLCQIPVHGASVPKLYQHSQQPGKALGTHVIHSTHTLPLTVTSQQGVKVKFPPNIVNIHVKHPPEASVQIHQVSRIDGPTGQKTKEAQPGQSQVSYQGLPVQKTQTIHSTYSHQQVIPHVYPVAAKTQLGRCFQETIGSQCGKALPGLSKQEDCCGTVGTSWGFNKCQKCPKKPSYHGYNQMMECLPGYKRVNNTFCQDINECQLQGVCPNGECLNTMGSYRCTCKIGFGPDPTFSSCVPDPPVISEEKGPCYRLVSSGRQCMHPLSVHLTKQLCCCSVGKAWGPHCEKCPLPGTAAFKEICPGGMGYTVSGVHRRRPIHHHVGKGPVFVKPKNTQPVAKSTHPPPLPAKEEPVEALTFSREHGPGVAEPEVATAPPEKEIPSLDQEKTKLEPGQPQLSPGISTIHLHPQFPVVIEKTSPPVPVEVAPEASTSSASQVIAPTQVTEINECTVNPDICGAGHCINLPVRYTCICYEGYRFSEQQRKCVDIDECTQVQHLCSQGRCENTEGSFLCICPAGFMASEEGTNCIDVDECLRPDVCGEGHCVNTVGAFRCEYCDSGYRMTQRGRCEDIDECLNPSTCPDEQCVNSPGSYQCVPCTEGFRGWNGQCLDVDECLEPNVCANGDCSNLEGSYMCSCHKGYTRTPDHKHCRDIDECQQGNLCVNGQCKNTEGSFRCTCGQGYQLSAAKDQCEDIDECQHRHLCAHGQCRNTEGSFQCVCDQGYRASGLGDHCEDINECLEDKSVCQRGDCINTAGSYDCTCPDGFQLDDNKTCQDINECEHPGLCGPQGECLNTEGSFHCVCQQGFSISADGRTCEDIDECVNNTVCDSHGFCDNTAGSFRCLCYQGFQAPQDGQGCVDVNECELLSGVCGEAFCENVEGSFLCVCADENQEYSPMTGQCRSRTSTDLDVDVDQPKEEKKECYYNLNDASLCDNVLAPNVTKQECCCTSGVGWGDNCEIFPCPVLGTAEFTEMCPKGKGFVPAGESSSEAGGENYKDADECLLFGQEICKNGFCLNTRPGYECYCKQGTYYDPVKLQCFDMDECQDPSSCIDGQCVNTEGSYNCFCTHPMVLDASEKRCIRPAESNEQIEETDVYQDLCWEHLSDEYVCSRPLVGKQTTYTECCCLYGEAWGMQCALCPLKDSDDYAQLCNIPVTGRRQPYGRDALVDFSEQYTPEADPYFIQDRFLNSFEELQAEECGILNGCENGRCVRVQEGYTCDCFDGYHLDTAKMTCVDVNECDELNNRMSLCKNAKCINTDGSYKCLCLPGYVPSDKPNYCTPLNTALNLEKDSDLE
UniProt Q9NS15: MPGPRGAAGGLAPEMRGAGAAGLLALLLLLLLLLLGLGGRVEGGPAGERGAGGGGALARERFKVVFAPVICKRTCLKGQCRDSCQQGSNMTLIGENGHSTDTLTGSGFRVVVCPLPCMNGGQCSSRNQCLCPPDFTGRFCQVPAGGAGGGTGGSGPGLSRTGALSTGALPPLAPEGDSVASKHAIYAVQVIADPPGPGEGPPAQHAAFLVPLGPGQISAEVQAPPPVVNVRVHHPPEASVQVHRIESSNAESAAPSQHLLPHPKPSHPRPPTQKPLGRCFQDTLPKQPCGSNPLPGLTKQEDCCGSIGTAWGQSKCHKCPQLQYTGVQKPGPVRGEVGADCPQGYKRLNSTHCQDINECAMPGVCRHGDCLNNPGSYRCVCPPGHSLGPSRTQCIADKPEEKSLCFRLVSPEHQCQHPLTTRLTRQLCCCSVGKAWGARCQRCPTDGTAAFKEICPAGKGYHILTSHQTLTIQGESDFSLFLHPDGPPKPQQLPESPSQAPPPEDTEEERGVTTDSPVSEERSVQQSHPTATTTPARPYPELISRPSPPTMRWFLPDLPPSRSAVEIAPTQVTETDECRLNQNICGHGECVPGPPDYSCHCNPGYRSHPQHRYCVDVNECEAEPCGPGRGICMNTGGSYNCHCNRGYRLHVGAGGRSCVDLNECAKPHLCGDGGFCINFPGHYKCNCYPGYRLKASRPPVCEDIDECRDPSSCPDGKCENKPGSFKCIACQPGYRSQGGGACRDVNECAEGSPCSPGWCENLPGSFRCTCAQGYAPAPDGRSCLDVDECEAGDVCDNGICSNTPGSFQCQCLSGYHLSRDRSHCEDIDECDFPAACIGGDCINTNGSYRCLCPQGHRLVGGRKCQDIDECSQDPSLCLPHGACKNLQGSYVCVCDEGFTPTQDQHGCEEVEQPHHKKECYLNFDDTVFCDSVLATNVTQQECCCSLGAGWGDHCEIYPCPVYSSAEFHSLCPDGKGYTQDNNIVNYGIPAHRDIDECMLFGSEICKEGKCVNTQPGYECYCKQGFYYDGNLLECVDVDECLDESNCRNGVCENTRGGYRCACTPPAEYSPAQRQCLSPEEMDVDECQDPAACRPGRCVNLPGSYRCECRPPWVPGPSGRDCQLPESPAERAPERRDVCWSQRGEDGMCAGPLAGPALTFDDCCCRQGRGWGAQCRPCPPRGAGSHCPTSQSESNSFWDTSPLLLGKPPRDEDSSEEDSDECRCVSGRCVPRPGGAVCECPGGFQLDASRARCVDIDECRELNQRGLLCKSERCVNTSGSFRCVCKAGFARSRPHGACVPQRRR
UniProt Q8CG19: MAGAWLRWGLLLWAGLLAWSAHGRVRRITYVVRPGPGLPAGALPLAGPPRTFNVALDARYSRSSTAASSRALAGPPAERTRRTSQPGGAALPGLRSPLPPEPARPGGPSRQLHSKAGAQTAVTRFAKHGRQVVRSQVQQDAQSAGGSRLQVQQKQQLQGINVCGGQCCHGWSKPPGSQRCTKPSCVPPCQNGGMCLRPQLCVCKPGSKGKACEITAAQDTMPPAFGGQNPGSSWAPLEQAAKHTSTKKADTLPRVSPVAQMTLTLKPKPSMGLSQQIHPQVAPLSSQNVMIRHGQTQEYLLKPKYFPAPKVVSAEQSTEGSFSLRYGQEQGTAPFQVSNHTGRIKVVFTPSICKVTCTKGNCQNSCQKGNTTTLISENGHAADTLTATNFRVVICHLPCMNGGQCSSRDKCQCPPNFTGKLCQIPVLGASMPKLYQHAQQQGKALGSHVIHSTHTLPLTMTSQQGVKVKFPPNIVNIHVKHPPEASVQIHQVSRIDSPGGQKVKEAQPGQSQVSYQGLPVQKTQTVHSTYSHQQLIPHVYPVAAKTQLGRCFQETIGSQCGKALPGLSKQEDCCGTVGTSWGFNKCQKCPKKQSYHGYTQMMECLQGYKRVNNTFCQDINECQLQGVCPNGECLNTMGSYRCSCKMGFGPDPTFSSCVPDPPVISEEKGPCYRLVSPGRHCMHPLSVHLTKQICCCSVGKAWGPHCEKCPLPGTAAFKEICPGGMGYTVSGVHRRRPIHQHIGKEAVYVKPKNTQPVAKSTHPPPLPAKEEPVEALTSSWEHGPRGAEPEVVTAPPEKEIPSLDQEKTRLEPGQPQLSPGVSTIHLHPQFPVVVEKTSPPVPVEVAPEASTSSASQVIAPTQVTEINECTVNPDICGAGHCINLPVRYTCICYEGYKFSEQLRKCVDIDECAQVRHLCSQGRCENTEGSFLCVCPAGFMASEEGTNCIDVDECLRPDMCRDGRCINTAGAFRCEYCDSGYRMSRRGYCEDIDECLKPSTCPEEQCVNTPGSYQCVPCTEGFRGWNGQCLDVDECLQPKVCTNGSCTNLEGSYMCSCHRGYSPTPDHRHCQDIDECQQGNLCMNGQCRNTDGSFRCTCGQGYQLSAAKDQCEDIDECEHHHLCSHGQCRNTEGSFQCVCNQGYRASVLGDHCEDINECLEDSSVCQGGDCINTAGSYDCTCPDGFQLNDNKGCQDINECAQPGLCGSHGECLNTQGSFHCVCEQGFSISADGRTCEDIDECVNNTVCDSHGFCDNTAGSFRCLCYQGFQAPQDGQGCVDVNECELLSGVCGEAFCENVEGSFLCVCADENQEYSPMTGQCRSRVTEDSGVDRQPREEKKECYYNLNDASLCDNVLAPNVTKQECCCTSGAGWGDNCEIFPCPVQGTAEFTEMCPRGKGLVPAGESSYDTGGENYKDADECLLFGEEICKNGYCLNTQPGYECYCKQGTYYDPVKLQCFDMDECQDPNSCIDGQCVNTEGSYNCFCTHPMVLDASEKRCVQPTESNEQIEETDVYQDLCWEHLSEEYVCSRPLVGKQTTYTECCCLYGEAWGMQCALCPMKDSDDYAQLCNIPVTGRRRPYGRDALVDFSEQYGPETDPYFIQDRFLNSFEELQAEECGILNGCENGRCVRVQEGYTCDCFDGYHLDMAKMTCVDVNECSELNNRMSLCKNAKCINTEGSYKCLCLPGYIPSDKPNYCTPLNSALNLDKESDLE

[2] = molecular target: T1, human LTBP1-proTGFβ1 complex; assay: Octet, biotinylated complex on streptavidin tips (FIG. 11)
[3] = molecular target: LTBP3-proTGFβ1 complex (human) (UniProt Q9NS15); assay: ELISA, RLU mean ± SD; antibody concentration not shown
[4] = molecular target: T1, human LTBP1-proTGFβ1 complex; assay: as above
[5] = molecular target: mouse LTBP1-proTGFβ1 complex (mouse) (UniProt Q8CG19); assay: as above
[6] = molecular target: LTBP3-proTGFβ1 complex (human) (UniProt Q9NS15); assay: ELISA vs. recombinant proTGFβ1 protein complexes, relative binding (RLU); antibody concentration not shown
[7] = molecular target: T1, human LTBP1-proTGFβ1 complex; assay: as above

binding [1]	binding [2]	binding [3]	binding [4]	binding [5]	binding [6]	binding [7]	Binder
binds	binds	binds	binds	binds	binds	binds	SR-AB2 (antibody, V domains shown) VH: QVQLVQSGAEVKKPGASVKVSCKASGYTFTSYGISWVRQAPGQGLEWMGWISAYNGNTNYAQKLQGRVTMTTDTSTSTAYMELRSLRSDDTAVYYCARAPLGNFDSWGQGTMVTVSS VL: NFMLTQPHSVSESPGKTVTISCTRSSGSIASNYVQWYQQRPGSSPTTVIYEDNQRPSGVPDRFSGSIDSSSNSASLTISGLKTEDEADYYCQSYDSSNHPVVFGGGTKLTVL
binds	binds	–	–	–	–	–	SR-AB10 (antibody, V domains shown) VH: QLQLQESGGGVVQPGRSLRLSCAASGFTFNNYPIHWVRQAPGKGLEWVAVMSYDGINKYYADSVKGRFTISRDNSKNTLYLQMNSLRAEDTAVYYCARPRIAARRGGFDYWGQGTLVTVSS VL: NFMLTQPHSVSESPGKTVTISCTRSSGNIDNNYVQWYQQRPGSSPTTVIYEDNQRPSGVPDRFSGSIDSSSNSASLTISGLKTEDEADYYCQSYDSDNQGVVFGGGTKLTVL

Reference: patent publication US20260234272A1 (SCHOLAR ROCK, published 2026)
